Binding signal data for 23 sequences are collected here from paper PMC7819943, “Rice protein-binding microarrays: a tool to detect cis-acting elements near promoter regions in rice”.

Some of the results follow.

This experiment has as its target T1, OsSMF1 (Oryza sativa, UniProt Q6ZLB0 1-436).
T1 sequence: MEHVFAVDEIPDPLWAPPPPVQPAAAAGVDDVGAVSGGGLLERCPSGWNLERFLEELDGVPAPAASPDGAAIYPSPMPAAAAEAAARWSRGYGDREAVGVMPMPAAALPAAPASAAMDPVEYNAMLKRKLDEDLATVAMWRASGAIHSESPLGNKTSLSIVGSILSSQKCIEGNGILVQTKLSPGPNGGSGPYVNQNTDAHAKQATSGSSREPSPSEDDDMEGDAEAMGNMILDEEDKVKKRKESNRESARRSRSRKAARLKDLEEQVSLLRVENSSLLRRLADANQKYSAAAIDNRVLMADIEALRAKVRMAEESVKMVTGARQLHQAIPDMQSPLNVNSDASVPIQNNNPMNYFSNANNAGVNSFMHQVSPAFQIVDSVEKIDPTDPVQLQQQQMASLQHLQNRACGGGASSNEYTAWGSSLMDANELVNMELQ
Description: protein-binding microarray (RPBM); PBS, 2% BSA, 51.3 ng/ul salmon testes DNA, 50 uM zinc acetate, 200 nM TF, 25 C, 1 h; high values mean tight binding. To be noted: protein: recombinant; tags: N-terminal polyhistidine and DsRed monomer fusion (pET32a); chain copies: 2; label: CyDye5-dUTP incorporated in the synthesized complementary strand; 3' TTTTT single-stranded linker to array surface; dsDNA, one strand shown. An outline of the steps:
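The binding signal for each feature is its fluorescence intensity in arbitrary units. An Axon 4000B scanner was used to read a custom Agilent array that had been made double-stranded with Cy5-dUTP primer extension, blocked with 2% BSA, incubated at 25 °C for 1 h with 200 nM protein in PBS, 2% BSA, salmon testes DNA and 50 µM zinc acetate, and washed. The protein was an N-terminal polyhistidine–DsRed transcription factor fusion from E. coli BL21-CodonPlus, purified on Ni–NTA.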
Consider “GTTCTCCTATACAACTCCACTTGTCATTAGTCATGCACTGCGGAGTCACCTAGTGCAG”, for which the binding signal is 4750 fluorescence intensity (a.u.). As for “CCAGTACATTTTGTACTACTACTTCGAACGGGCATGGTCGCGGAGTCACCTAGTGCAG”, the binding signal was 29700 fluorescence intensity (a.u.). As for “GCTCTATCCAATCTCCCACATCAGCCACACCATCAAAAGCCGGAGTCACCTAGTGCAG”, the binding signal is 4520 fluorescence intensity (a.u.). For “TGCCATCACGTTTTGTGTTTTGAAGTGTTACTATAACACACGGAGTCACCTAGTGCAG”, the binding signal was 3250 fluorescence intensity (a.u.). The result for “TTTGGTGGCTATGGCTACGGAATTATGCTTCTGACTTCTGCGGAGTCACCTAGTGCAG” reads 5440 fluorescence intensity (a.u.). Regarding “TTAGGCTTGGGAGGAGAACTGCAGGGTGTGACATCATACTCGGAGTCACCTAGTGCAG”, the binding signal is 4750 fluorescence intensity (a.u.). “TGGAGTGCAACCGATGATTCAAGACGTGAACCCGTTCCATCGGAGTCACCTAGTGCAG”: the binding signal is 3490 fluorescence intensity (a.u.). Regarding “CCTTCACGGGCAAACCTCACAACTCACCTGCTGCTGCTATCGGAGTCACCTAGTGCAG”, the binding signal is 3430 fluorescence intensity (a.u.). As to “ATACTGAATACGTCACTAATGCACTTTGAATTTGTTGTTGCGGAGTCACCTAGTGCAG”, the binding signal was 11800 fluorescence intensity (a.u.). For the sequence “AGCCTAGCCTCGCCGCCACCGCTTCCTCCTCCGTGGCACTCGGAGTCACCTAGTGCAG”, the binding signal is 4120 fluorescence intensity (a.u.). The result for “CAATAGTGTAGCTGATGGCTACTACTGCCCCGTTGGCATCCGGAGTCACCTAGTGCAG” reads 4760 fluorescence intensity (a.u.); that for “CTGCGCCCGCATGAGTCATGACGCCATGCGCCGCGTCCCGCGGAGTCACCTAGTGCAG”, 7370 fluorescence intensity (a.u.). Turning to “TGACCACACATTGCATCCGTCACCACCTTCTTCTAATTAACGGAGTCACCTAGTGCAG”, the binding signal is 3490 fluorescence intensity (a.u.). Turning to “TGCCTTCTGATTCTGGATCCCTGATGTTATATGTGTGCACCGGAGTCACCTAGTGCAG”, the binding signal is 36700 fluorescence intensity (a.u.). As to “GTGGAGTGGCGGTGGTAGCTTGTGACAGTGGCTATAAGAGCGGAGTCACCTAGTGCAG”, the binding signal is 3370 fluorescence intensity (a.u.). On to “TGGCGACCACGCCAGCACCATCGCATCACCCGTCTCCCTGCGGAGTCACCTAGTGCAG”, for which the binding signal was 6360 fluorescence intensity (a.u.). As for “CTCCACGCCACGTTACCACCAGCAGTCCAGCGTGCCTCGCCGGAGTCACCTAGTGCAG”, the binding signal is 7620 fluorescence intensity (a.u.).

With “GTCACTTGCTTCCAAGAACCCCGTGACAAGGCGGGAAGGACGGAGTCACCTAGTGCAG”, the binding signal is 3710 fluorescence intensity (a.u.). Consider “GAAAACTAGCTTTGTCATCATTTCCGCTTCGTTCCGGCTGCGGAGTCACCTAGTGCAG”, for which the binding signal is 6720 fluorescence intensity (a.u.). The result for “CGCCGCCACCATCAACCGCGTCCCTCGTGACCTCGTCTCGCGGAGTCACCTAGTGCAG” reads 3680 fluorescence intensity (a.u.); that for “GGCTGGTGGGGCATGCGAGATACCCGGGCCCACGTGTCGGCGGAGTCACCTAGTGCAG”, 10000 fluorescence intensity (a.u.); that for “TACTCTGATTTTGTCCATTACCAGCTGCAAATGGACCAGCCGGAGTCACCTAGTGCAG”, 34600 fluorescence intensity (a.u.). The result for “GCGTGTAGCAATACTAAAGTTAGTGGTTGATGGTGGTCTGCGGAGTCACCTAGTGCAG” reads 3160 fluorescence intensity (a.u.).
